Reference: PMC8345877

Molecular target: T1, CD97β-2HA (β subunit of CD97 with a double HA epitope on its intracellular C terminus) (mouse) (UniProt Q9Z0M6)
T1 sequence: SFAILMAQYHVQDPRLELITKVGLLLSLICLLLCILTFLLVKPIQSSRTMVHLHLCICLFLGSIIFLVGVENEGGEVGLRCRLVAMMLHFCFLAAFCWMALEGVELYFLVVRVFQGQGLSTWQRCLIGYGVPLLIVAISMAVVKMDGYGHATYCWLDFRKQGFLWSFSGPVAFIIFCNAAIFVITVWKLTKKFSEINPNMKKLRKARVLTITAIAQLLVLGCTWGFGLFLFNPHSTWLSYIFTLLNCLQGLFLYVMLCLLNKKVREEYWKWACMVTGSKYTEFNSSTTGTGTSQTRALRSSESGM
Assay: co-IP; anti-HA sepharose beads on the post-nuclear lysate of MutuDCs stably expressing CD97-2HA and GFP or GFP-SteD, activated with 100 ng/ml LPS for 24 h; lysis buffer 150 mM NaCl, 50 mM Tris pH 7.4, 5 mM EDTA, 0.5% Triton X100, 5% glycerol; 7 h at 4°C; immunoblot

Question: For GFP-SteD (S. Typhimurium), which binding is on record?
Answer: Its binding is “binds”.

These are yes or no findings as the source states them, for the method shown. In cells and extracts the contact can be indirect. A result given as binding can be weak or reduced; the word gives no strength. Tags and fused reporters may be left off the sequences shown.
